This is one part of the list. Small differences around the control level are noise.

Amino acid sequences for entries named in this document (tags omitted). A change or cut given only in a name is not applied to a line headed by its entry.
UniProt Q9Y2I8: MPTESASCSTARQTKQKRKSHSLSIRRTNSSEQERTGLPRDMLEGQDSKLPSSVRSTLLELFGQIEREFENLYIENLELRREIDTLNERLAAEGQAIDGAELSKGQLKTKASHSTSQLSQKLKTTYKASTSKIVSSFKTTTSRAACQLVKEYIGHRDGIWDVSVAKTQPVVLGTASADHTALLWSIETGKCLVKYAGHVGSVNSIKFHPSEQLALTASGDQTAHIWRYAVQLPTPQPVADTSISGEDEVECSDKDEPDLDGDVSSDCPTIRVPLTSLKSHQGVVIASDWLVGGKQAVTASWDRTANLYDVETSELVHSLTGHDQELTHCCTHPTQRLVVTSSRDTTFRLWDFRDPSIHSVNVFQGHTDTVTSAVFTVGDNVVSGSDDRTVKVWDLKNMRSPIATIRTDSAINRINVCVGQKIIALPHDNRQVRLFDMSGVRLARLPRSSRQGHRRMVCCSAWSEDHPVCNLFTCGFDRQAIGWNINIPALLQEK
UniProt Q9Y6R9: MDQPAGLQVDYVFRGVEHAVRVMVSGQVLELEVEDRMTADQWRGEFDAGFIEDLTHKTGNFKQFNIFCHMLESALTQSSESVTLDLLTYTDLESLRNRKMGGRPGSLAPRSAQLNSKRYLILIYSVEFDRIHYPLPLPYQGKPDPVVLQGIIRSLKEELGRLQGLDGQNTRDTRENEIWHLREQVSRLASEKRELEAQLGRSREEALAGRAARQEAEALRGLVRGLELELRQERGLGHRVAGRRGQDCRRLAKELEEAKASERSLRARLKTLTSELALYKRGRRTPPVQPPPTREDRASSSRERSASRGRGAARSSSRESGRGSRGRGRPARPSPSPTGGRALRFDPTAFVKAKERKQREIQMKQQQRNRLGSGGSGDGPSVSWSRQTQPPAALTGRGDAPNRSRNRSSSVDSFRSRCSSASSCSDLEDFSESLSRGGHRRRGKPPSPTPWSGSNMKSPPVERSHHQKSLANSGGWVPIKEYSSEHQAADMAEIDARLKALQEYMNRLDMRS
UniProt Q9Y462: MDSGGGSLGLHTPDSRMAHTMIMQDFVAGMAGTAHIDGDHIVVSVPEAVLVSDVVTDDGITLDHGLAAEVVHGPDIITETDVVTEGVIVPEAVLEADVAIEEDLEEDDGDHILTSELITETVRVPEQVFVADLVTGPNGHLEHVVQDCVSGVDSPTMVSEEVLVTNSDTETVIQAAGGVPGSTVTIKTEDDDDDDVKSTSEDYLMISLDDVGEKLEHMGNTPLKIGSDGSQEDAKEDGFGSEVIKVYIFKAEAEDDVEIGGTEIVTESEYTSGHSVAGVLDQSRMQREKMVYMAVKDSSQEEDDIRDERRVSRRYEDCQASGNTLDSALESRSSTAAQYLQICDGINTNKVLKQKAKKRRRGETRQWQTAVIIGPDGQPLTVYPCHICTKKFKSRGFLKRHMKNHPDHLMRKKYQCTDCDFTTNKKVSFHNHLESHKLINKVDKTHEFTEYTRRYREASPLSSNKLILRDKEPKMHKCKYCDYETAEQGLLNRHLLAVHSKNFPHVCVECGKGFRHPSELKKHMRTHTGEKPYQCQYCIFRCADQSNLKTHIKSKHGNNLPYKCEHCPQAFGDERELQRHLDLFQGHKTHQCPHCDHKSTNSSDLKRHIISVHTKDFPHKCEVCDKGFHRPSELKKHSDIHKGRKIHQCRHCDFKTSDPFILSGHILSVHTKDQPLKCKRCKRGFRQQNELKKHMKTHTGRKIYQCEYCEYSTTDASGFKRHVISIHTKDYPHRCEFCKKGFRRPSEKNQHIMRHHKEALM
UniProt Q9Y5S2: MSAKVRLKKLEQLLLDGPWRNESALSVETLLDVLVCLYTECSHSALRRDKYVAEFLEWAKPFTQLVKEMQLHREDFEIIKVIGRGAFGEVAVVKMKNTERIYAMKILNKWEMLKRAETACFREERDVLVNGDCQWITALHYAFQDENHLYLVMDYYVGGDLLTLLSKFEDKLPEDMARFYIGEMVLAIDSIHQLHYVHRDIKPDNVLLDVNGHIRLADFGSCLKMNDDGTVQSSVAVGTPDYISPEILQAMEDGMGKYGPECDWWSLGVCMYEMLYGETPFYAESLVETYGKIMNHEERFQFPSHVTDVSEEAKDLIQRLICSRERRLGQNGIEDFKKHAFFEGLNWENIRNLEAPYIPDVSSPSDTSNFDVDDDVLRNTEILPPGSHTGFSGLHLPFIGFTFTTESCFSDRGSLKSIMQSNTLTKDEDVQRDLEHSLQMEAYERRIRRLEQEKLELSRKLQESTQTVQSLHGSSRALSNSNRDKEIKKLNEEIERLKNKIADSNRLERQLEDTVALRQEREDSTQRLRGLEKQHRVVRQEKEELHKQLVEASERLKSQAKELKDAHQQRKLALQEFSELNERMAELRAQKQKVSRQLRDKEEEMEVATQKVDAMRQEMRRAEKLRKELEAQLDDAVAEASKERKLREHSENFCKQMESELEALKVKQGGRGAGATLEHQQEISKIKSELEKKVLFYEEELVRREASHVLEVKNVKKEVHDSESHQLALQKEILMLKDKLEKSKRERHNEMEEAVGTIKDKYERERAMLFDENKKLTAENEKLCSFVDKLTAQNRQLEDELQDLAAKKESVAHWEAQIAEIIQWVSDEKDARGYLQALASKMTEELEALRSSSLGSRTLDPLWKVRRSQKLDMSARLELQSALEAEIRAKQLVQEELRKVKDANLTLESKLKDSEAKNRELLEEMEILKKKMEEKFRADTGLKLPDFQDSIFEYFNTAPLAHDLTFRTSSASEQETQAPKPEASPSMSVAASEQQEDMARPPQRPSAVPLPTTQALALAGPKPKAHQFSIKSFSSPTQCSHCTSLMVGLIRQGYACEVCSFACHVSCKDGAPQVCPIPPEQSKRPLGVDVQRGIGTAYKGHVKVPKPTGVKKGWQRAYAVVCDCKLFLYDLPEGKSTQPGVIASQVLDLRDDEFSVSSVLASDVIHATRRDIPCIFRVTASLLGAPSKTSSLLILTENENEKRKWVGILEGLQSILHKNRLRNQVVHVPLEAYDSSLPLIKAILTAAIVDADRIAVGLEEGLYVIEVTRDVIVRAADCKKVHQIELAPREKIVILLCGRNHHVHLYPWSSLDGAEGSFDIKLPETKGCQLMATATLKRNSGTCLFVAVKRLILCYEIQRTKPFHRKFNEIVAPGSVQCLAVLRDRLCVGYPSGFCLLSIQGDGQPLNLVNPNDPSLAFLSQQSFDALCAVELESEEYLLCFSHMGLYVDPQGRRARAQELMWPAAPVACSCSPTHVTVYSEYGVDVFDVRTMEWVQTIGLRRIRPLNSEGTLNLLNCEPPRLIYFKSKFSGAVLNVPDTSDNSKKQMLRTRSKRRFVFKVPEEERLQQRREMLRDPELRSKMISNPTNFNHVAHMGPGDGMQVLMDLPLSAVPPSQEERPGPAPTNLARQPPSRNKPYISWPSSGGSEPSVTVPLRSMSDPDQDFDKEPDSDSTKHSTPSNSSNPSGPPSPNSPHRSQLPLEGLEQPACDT
UniProt Q9Y3D2: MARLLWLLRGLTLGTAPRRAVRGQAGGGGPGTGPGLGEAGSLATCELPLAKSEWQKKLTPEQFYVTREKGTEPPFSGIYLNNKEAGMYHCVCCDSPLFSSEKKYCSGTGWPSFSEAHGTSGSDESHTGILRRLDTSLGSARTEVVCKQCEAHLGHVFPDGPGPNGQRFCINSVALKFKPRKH
UniProt Q9Y426: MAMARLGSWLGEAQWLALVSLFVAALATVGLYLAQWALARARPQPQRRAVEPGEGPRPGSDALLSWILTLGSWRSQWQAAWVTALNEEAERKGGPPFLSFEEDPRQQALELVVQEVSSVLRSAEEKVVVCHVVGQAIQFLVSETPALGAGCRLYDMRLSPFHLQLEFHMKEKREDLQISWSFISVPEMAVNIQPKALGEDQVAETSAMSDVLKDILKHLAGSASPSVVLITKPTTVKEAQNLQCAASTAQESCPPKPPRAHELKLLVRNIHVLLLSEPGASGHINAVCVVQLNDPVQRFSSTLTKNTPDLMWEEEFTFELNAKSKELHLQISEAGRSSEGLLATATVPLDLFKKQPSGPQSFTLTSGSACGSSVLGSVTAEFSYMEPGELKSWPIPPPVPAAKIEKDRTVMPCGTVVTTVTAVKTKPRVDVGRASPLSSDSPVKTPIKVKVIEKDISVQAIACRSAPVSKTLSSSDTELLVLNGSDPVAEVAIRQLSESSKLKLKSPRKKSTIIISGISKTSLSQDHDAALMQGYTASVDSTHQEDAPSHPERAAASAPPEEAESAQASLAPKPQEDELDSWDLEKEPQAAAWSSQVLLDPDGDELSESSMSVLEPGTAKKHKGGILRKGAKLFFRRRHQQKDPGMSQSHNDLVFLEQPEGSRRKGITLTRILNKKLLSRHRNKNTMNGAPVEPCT
UniProt Q9Y450, whole entry: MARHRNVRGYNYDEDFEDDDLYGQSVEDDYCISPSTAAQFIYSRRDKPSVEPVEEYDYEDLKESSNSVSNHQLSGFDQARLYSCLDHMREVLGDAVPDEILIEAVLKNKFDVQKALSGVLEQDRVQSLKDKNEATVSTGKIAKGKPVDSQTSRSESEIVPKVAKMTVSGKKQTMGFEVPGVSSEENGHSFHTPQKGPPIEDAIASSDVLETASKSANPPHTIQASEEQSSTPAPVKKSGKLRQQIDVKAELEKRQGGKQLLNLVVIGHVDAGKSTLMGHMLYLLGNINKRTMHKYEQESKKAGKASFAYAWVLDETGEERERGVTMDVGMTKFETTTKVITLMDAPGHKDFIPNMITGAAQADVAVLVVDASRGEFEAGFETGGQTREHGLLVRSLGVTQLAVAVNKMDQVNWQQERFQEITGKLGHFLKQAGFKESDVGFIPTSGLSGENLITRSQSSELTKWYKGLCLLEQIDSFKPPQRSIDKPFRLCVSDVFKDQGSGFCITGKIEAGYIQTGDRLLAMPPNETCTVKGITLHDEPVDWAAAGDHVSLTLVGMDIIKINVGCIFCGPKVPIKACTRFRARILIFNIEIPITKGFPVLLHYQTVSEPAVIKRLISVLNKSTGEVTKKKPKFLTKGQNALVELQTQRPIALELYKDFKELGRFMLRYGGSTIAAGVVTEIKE
UniProt Q9Y5J9: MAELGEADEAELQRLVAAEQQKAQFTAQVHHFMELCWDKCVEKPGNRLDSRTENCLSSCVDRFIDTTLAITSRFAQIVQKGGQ
UniProt Q9Y4U1: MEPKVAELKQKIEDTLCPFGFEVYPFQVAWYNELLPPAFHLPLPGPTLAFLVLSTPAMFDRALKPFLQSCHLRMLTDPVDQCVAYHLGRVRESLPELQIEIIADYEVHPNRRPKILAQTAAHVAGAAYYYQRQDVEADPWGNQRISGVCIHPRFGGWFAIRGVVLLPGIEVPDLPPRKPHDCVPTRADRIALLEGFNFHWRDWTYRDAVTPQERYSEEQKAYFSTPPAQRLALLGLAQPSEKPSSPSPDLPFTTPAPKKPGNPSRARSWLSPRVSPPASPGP
UniProt Q9Y316: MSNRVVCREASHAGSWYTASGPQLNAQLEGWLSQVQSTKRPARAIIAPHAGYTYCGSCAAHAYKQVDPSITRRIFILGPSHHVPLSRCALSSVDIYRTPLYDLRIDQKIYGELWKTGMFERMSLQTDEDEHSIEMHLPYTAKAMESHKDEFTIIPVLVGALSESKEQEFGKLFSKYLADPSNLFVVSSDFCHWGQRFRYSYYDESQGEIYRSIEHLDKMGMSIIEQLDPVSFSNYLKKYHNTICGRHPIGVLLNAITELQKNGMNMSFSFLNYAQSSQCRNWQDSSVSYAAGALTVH
UniProt Q9Y5X3: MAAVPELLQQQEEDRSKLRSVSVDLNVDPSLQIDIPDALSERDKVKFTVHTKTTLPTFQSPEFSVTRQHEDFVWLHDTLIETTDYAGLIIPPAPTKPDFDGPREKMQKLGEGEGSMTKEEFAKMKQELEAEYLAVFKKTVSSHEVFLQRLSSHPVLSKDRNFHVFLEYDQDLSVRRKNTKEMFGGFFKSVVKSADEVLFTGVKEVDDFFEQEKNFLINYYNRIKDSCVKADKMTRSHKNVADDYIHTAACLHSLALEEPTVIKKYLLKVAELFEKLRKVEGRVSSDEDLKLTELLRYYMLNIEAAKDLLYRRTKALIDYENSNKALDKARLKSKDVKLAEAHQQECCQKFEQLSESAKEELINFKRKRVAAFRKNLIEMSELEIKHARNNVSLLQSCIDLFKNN
UniProt Q9Y6P5: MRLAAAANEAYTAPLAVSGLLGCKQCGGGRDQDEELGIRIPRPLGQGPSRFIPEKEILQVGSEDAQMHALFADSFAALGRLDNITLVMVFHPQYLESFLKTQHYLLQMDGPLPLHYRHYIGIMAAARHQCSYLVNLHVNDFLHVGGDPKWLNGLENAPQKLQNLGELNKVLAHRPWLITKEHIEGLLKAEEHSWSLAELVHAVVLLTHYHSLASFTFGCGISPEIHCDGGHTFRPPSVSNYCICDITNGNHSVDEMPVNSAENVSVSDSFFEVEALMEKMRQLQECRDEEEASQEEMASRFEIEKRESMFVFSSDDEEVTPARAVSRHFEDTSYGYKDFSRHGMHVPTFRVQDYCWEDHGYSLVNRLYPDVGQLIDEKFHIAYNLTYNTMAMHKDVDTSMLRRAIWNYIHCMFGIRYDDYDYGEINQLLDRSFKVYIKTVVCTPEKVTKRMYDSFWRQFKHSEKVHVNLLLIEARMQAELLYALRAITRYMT

Compound in this assay: Cc1nc(Nc2ncc(C(=O)Nc3c(C)cccc3Cl)s2)cc(N2CCN(CCO)CC2)n1 [dasatinib]
The assay can be described thus: log2 fold change of tryptic peptide abundance, ligand vs vehicle (limited proteolysis) (log2 ratio); higher = more trypsin-susceptible (destabilized). The following applies: ligand concentration: 5 uM; sample: K562 cleared lysate.
With “WDR37 (peptide sequence: ASHSTSQLSQK, peptide start residue: 111) (UniProt Q9Y2I8)”, the log2 fold change was -0.229.
To “ASF1A (peptide sequence: ENPPVKPDFSK, peptide start residue: 124) (UniProt Q9Y294)” belongs -0.0918.
For “WBP11 (peptide sequence: ENPDIYKELR, peptide start residue: 99) (UniProt Q9Y2W2)”, the log2 fold change was -0.222.
Consider “CCDC61 (peptide sequence: EYSSEHQAADMAEIDAR, peptide start residue: 481) (UniProt Q9Y6R9)”, for which the log2 fold change amounted to 0.596.
The result for “UniProt Q9Y462 (peptide sequence: VDKTHEFTEYTR, peptide start residue: 442)” reads -0.194; that for “EPN1 (peptide sequence: ENMYAVQTLK, peptide start residue: 98) (UniProt Q9Y6I3)”, -0.111.
To “UniProt Q9Y5S2 (peptide sequence: KVLFYEEELVRR, peptide start residue: 693)” belongs 0.166.
With “PPME1 (peptide sequence: LLLLAGVDRLDKDLTIGQMQGK, peptide start residue: 317) (UniProt Q9Y570)”, the log2 fold change is 0.725.
The result for “MSRB2 (peptide sequence: QCEAHLGHVFPDGPGPNGQR, peptide start residue: 148) (UniProt Q9Y3D2)” reads -0.1.
The result for “C2CD2 (peptide sequence: STIIISGISK, peptide start residue: 511) (UniProt Q9Y426)” reads -0.197; that for “MED16 (peptide sequence: LHLGACPTEECKACTR, peptide start residue: 785) (UniProt Q9Y2X0)”, -0.678; that for “HBS1L (peptide sequence: ALSGVLEQDRVQSLKDK, peptide start residue: 115) (UniProt Q9Y450)”, -0.641.
As to “TESMIN (peptide sequence: ACLGRNPEAFQPK, peptide start residue: 341) (UniProt Q9Y4I5)”, the log2 fold change turned out to be 0.268.
For the target “TIMM8B (peptide sequence: FIDTTLAITSR, peptide start residue: 63) (UniProt Q9Y5J9)”, the log2 fold change stood at 0.0238.
The result for “MMACHC (peptide sequence: DAVTPQER, peptide start residue: 207) (UniProt Q9Y4U1)” reads 0.138.
Consider “UniProt Q9Y678 (peptide sequence: VFNETPINPR, peptide start residue: 33)”, for which the log2 fold change is -0.183.
For “DYNC1LI1 (peptide sequence: KFCLQYGAALIYTSVKENK, peptide start residue: 273) (UniProt Q9Y6G9)”, the log2 fold change is 0.605.
For “MEMO1 (peptide sequence: TPLYDLR, peptide start residue: 98) (UniProt Q9Y316)”, the log2 fold change is -0.129.
For “FBXO7 (peptide sequence: LGENVANIYK, peptide start residue: 290) (UniProt Q9Y3I1)”, the log2 fold change is -0.206.
With “SNX5 (peptide sequence: NLIEMSELEIKHAR, peptide start residue: 375) (UniProt Q9Y5X3)”, the log2 fold change is -0.477.
To “TACC3 (peptide sequence: QKEVIEGYR, peptide start residue: 732) (UniProt Q9Y6A5)” belongs -0.221; to “NCOA3 (peptide sequence: SSMRPGFEDIIR, peptide start residue: 287) (UniProt Q9Y6Q9)”, -0.228.
As for “MTO1 (peptide sequence: GMIVIGLETHPAGR, peptide start residue: 199) (UniProt Q9Y2Z2)”, the log2 fold change came out at 0.225.
To “MTCL1 (peptide sequence: NRLPEEEENHKGNLQR, peptide start residue: 1367) (UniProt Q9Y4B5)” belongs 0.706; to “RNF114 (peptide sequence: LFHSTDTK, peptide start residue: 162) (UniProt Q9Y508)”, 0.203; to “SESN1 (peptide sequence: HSEKVHVNLLLIEAR, peptide start residue: 461) (UniProt Q9Y6P5)”, 0.0535.

Source of the values: the supplement of paper PMC12819154, “High-throughput peptide-centric local stability assay extends protein–ligand identification to membrane proteins, tissues and bacteria” (Nature Structural & Molecular Biology, 2025).
